The nature of the assay: IkB Signaling. The note with it: ABC-DLBCL IkBa-CBG/CBR dual luciferase ratio (green luciferase fused to IkBa over red control in OCI-Ly3 lymphoma cells), 4 h. In outline: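 Luminescence ratio of IκBα-fused green versus native red beetle luciferase in OCI-Ly3 cells, 4 h post-doxycycline with compound; red signal alone, scaled from basal (0%) to zero light (-100%), flagged nonspecific or cytotoxic effects.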
Setting [1] is: measured here: control luc red channel unless noted.

Experimental findings from PubChem BioAssay AID445 (National Center for Advancing Translational Sciences (NCATS), 2006) are described below.

One may read the AC50 as the midpoint of the concentration-response curve, whichever way the signal moves.

SMILES strings stand for the structures. Some of the results follow. Further columns of the screen follow, without active or inactive calls. The list favours compounds with an active or inconclusive main result. The note in brackets gives the kind of curve behind each potency; many fits are weak.

In the case of `Cc1ccc(NCc2nc3ccccc3n2CCOc2ccccc2)cc1`, under setting [1], the half-maximal activity concentration (AC50) is 3.98 µM [falling, partial curve]. Still for that read-out and setting: in the case of `CCCOc1cccc(C(=O)Nc2cccc(NC(=O)c3ccco3)c2)c1` it was 5.01 µM [falling, partial curve]; in that of `COc1ccccc1Nc1cc(C(=O)NCc2cccs2)c2ccccc2n1`, 7.94 µM [falling, partial curve]. On to `Clc1ccc(-c2nnc(NC3=NCCCCC3)o2)cc1`, for which the AC50 under setting [1] was 0.0398 µM [falling, full curve]. Still for that read-out and setting: in the case of `Cc1nc(-c2ccccc2)sc1CCNS(=O)(=O)c1ccc(Br)cc1` it was 20 µM [falling, partial curve]; in that of `O=C1c2ccccc2-c2n[nH]c3cccc1c23`, 39.8 µM [falling, partial curve, poor fit] [measured here: IkB-luc green channel]. The same measure, in the same setting: in the case of `O=C(O)CCC(=O)c1ccc2sc3ccccc3c2c1` it was 0.0501 µM [falling, full curve]; in that of `O=C(c1ccc(OCCN2CCCCC2)cc1)c1c(-c2ccc(O)cc2)sc2cc(O)ccc12`, 6.31 µM [falling, partial curve, poor fit] [measured here: IkB-luc green channel]; in that of `O=C(NC(Cc1ccccc1)C(=O)N1CCN(c2ccccn2)CC1)c1ccco1` (stereo not drawn), 12.6 µM [falling, partial curve]. Same read-out and setting: the same measure for `CN(C)S(=O)(=O)c1cccc(-c2nnc(SCc3ccc4c(c3)OCCO4)o2)c1`: 39.8 µM [falling, single point]; for `Cc1cccc(N2CCN(C(=O)CS(=O)(=O)c3cccc4nsnc34)CC2C)c1` (stereo not drawn): 20 µM [falling, single point]; for `CC1(C)CC(=O)c2c(oc3c(Cl)cc(NS(=O)(=O)c4ccc(Cl)cc4)cc23)C1`: 39.8 µM [falling, single point]. For the molecule `CN(C)S(=O)(=O)c1ccc2c(c1)N(CC(=O)N1CCN(c3ccc(F)cc3)CC1)CCS2`, the AC50 under setting [1] was 25.1 µM [falling, partial curve, poor fit].

As for `Cc1ccc(-c2nc(CS(=O)CC(=O)N3CCN(c4ccc(Cl)cc4)CC3)c(C)o2)cc1` (stereo not drawn), under setting [1], the half-maximal activity concentration (AC50) is 25.1 µM [falling, partial curve, poor fit]. The same measure, in the same setting: in the case of `CC1CCN(c2ccc(-c3nc(C(C)C)no3)cc2[N+](=O)[O-])CC1` it was 25.1 µM [falling, single point]; in that of `Cc1nc2ccccc2c(=O)n1-c1ccc(NC(=O)C(F)(F)F)cc1`, 6.31 µM [rising, single point]. With `C=CCn1c(SCC(=O)Nc2ccc3c(c2)OCO3)nnc1-c1cc(Br)ccc1O`, the AC50 under setting [1] is 12.6 µM [falling, partial curve].

With `COc1ccc(OC)c(CNC(=O)CCCn2ccc3cc(S(=O)(=O)N4CCCC4)ccc32)c1`, under setting [1], the half-maximal activity concentration (AC50) was 31.6 µM [falling, partial curve]. Still for that read-out and setting: in the case of `CCOc1ccc(CNC(=O)CCC(=O)N2CC(C)Sc3ccccc32)cc1` (stereo not drawn) it was 15.8 µM [falling, partial curve]; in that of `CCOc1ccc(CCNC(=O)CCCn2nc(C)c3sc4ccccc4c3c2=O)cc1OCC`, 10 µM [falling, partial curve]; in that of `O=C(CSc1nccn1-c1ccccc1)Nc1nc2ccccc2s1`, 39.8 µM [falling, partial curve]. Same read-out and setting: in the case of `CCCc1cc(=O)[nH]c(Nc2ccc(C(=O)O)cc2)n1` it was 15.8 µM [falling, partial curve]; in that of `COC(=O)CC1c2cc(OC)c(OC)cc2CCN1C(=O)Nc1ccc(C)cc1Cl` (stereo not drawn), 12.6 µM [falling, single point]. On the same count and under the same terms, the same measure for `COc1ccccc1Nc1nn2c(=O)c3ccc(C(=O)NCCCOC(C)C)cc3nc2s1`: 0.631 µM [falling, full curve, poor fit]; for `CCc1ccc(CNC(=O)c2cccc(-n3cnc4cccnc43)c2C)cc1`: 12.6 µM [falling, partial curve].

With `CCC1CN(C(=O)N2CCC(C(=O)NCCN(C)C)CC2)c2ccccc2O1` (stereo not drawn), the AC50 under setting [1] was 20 µM [falling, partial curve]. Still for that read-out and setting: in the case of `Cn1cccc1C(=O)OCc1csc(-c2ccccc2)n1` it was 6.31 µM [falling, partial curve]. Same read-out and setting: in the case of `Cc1ccc(CN(C(=O)COc2cccc([N+](=O)[O-])c2)c2ccccn2)o1` it was 7.94 µM [falling, partial curve, poor fit].

For `O=S(=O)(Nc1ccc(Cl)cc1)c1ccc(NS(=O)(=O)c2ccc3c(c2)OCCO3)cc1`, the half-maximal activity concentration (AC50) under setting [1] was 10 µM [falling, partial curve]. On the same count and under the same terms, the same measure for `OCCCc1nc2ccccc2n1CCOc1ccccc1`: 7.94 µM [falling, partial curve]; for `CCC(=O)N1CCc2cc(Br)cc(S(=O)(=O)N3CCCC(C(=O)Nc4ccc(OC)c(Cl)c4)C3)c21` (stereo not drawn): 0.398 µM [falling, full curve]; for `CCC(C)NC(=O)c1cnn(-c2ccc(Cl)cc2)c1C1CCN(C(=O)OC(C)(C)C)CC1` (stereo not drawn): 15.8 µM [falling, partial curve]. On the same count and under the same terms, in the case of `Cc1ccn2c(Nc3ccc4c(c3)OCCO4)c(-c3ccc(Cl)s3)nc2c1` it was 3.16 µM [falling, partial curve]; in that of `CN(C1CCCCC1)S(=O)(=O)c1ccc2c(c1)c(=O)c(C(=O)NCCc1ccccc1)cn2C`, 39.8 µM [falling, single point]; in that of `c1nc2sc3c(c2c2nnnn12)CCCC3`, 31.6 µM [falling, partial curve]. On the same count and under the same terms, the same measure for `CCCCCC(=O)N(O)C1CC(=O)N(c2ccccc2)C1=O` (stereo not drawn): 12.6 µM [falling, partial curve]; for `COc1ccc(C)cc1N(C)C(=O)c1c(C)oc2ncnc(N3CCOCC3)c12`: 39.8 µM [falling, single point]; for `Cc1nn(C)c(C)c1S(=O)(=O)N1CCCC(C(=O)N2CCN(c3ccc(Cl)cc3)CC2)C1` (stereo not drawn): 7.94 µM [falling, partial curve]. On to `CN(c1ccc(Cl)cc1)S(=O)(=O)c1nnc(NC(=O)C2CCCCC2)s1`, for which the half-maximal activity concentration (AC50) under setting [1] is 20 µM [falling, single point]. As for `COc1cc(C(=O)Oc2c(Sc3ccc(C)cc3)c(C)nn2-c2ccccc2)cc(OC)c1OC`, the half-maximal activity concentration (AC50) under setting [1] was 10 µM [falling, partial curve]. The same measure, in the same setting: in the case of `CCOc1ccccc1NC(=O)c1c(NC(=O)c2ccccc2C)sc2c1CCC(C)C2` (stereo not drawn) it was 12.6 µM [falling, partial curve]. In the case of `COC(=O)c1c(C)sc(-c2c(-c3ccc4c(c3)OCCO4)[nH]c3c2c(=O)n(C)c(=O)n3C)c1O`, the concentration at half-maximal activity (AC50) was 39.8 µM [rising, single point] (measured here: IkB-luc green channel) and 2 µM [falling, partial curve] (measured here: control luc red channel). Turning to `COc1ccccc1-c1cc(C(=O)Nc2cc(OC)c(OC)c(OC)c2)no1`, the concentration at half-maximal activity (AC50) under setting [1] is 15.8 µM [falling, partial curve]. On the same count and under the same terms, the same measure for `CCN(CC)CCCNC(=O)c1nn(C)c2c1CSc1ccccc1-2`: 12.6 µM [falling, partial curve]. In the case of `CCN(CC)c1ccc(C(=O)NCc2ccc3c(c2)CCN3C(=O)c2ccc(F)cc2)cc1`, under setting [1], the AC50 was 7.94 µM [falling, full curve]. Still for that read-out and setting: in the case of `COc1ccc(C(C)=O)cc1CSc1nc(NCCc2ccccc2)c2ccccc2n1` it was 25.1 µM [falling, single point]; in that of `COc1ccc(C(=O)NNc2ncnc3c2cnn3-c2cccc(Cl)c2)cc1OC`, 1.58 µM [falling, full curve].

Take `NC(=O)c1cc2ccc(O)cc2oc1=Nc1ccccc1`: the concentration at half-maximal activity (AC50) under setting [1] is 0.02 µM [falling, full curve].

With `COc1ccc(NC(=O)CCc2nc3c(C)nn(-c4ccc(C)cc4)c3n(C)c2=O)cc1`, the AC50 under setting [1] was 25.1 µM [falling, partial curve, poor fit].

As to `O=C(CN1C2=NCCN2c2ccccc21)c1ccc(Br)cc1`, the half-maximal activity concentration (AC50) under setting [1] was 3.98 µM [falling, full curve, poor fit]. In the case of `Cc1cccc(N(CC(=O)NCCSCc2cccc(Cl)c2)S(=O)(=O)c2ccccc2)c1C`, under setting [1], the AC50 was 15.8 µM [falling, partial curve]. With `COc1ccc(Cl)cc1CNCCSc1nnnn1-c1ccccc1`, the concentration at half-maximal activity (AC50) under setting [1] was 31.6 µM [falling, single point]. Still for that read-out and setting: in the case of `COc1ccc(C2NC(=O)N(C)C3=C2C(=O)N(c2cccc(C(=O)O)c2)C3)cc1` (stereo not drawn) it was 31.6 µM [rising, single point]; in that of `Cc1ccc(C)c(NC(=O)Cn2cc(C(=O)c3cccs3)c3ccccc32)c1`, 12.6 µM [falling, partial curve]; in that of `CCOc1ccccc1NC(=O)C1CCCN1S(=O)(=O)c1ccc2c(c1)C(C)(C)C(=O)N2C` (stereo not drawn), 31.6 µM [falling, single point]. The same measure, in the same setting: in the case of `C=CCn1c(=O)/c(=C/c2ccc(Cl)cc2)s/c1=C(/C#N)c1nnc2n1CCCCC2` it was 15.8 µM [falling, partial curve]; in that of `Nc1c(C(=O)Nc2ccccc2F)sc2nc3c(cc12)CCCCCC3`, 0.02 µM [rising, full curve]; in that of `CCC(C(=O)NCc1ccc(OC)c(OC)c1)n1nc(C)c2c(C)n(-c3ccc(C)cc3)nc2c1=O` (stereo not drawn), 15.8 µM [falling, partial curve].

On to `COc1ccc(Cc2nc3c4cnn(-c5ccccc5F)c4ncn3n2)cc1`, for which the concentration at half-maximal activity (AC50) under setting [1] is 25.1 µM [falling, partial curve]. On the same count and under the same terms, in the case of `COC(=O)c1cc(CSc2nnc(NC3CCCCC3)s2)oc1C` it was 12.6 µM [falling, partial curve]. On the same count and under the same terms, the same measure for `CCc1ccccc1NC(=O)CN1CCCN(Cc2cc(C)ccc2C)S1(=O)=O`: 3.98 µM [falling, full curve, poor fit]; for `CCc1ccc(NC(=O)CCNS(=O)(=O)c2ccc3c(c2)oc(=O)n3C)cc1`: 10 µM [falling, partial curve].
